Our source for the binding values is patent US20060035272A1.

The chains behind the UniProt entries cited, without tags or fusion partners. Where a name states a change or a piece, a line headed by the entry shows the natural chain unless it says otherwise. Residues count along the entry.
UniProt P04386: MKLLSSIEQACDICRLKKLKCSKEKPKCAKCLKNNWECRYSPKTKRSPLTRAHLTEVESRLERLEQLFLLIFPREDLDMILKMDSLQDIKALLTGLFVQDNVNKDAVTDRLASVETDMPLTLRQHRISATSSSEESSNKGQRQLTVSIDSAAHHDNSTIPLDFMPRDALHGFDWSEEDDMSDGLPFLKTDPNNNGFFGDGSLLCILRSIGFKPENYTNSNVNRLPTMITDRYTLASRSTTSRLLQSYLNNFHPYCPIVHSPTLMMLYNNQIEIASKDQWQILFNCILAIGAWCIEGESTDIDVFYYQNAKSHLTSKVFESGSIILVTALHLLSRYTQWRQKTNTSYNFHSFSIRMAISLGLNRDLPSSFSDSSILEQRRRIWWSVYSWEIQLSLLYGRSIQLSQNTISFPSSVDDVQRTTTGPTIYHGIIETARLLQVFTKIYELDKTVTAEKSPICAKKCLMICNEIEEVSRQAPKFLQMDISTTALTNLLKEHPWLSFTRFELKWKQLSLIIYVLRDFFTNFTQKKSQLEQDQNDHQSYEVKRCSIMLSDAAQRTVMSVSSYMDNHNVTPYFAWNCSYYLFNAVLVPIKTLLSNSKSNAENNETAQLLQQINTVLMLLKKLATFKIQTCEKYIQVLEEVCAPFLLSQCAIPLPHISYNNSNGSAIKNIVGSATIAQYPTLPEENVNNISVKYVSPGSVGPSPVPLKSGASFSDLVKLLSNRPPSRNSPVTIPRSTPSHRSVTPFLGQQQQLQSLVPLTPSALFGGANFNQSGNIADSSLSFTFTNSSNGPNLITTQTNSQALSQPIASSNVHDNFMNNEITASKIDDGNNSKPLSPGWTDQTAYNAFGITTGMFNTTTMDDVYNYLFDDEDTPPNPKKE
UniProt Q14186: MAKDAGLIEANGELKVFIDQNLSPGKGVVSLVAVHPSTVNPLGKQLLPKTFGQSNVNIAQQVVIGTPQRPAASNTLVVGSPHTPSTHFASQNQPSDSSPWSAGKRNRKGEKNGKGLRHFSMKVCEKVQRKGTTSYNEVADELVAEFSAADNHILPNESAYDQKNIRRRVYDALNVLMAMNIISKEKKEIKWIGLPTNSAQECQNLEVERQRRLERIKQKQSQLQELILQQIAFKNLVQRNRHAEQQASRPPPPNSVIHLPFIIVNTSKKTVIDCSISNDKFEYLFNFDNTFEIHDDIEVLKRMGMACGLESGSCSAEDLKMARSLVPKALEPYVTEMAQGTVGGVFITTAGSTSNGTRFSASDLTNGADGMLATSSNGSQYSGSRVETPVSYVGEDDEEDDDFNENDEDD
UniProt Q61502: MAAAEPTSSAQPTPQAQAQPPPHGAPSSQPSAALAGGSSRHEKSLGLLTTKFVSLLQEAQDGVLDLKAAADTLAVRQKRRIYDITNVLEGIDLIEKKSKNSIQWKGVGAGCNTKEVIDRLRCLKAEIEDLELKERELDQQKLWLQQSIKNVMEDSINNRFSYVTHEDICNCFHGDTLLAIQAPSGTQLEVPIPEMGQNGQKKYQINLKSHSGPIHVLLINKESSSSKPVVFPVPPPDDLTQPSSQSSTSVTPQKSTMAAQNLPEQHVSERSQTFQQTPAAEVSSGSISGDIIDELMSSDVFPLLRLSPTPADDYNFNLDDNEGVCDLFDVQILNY
UniProt Q8R0K9, residues 2-410: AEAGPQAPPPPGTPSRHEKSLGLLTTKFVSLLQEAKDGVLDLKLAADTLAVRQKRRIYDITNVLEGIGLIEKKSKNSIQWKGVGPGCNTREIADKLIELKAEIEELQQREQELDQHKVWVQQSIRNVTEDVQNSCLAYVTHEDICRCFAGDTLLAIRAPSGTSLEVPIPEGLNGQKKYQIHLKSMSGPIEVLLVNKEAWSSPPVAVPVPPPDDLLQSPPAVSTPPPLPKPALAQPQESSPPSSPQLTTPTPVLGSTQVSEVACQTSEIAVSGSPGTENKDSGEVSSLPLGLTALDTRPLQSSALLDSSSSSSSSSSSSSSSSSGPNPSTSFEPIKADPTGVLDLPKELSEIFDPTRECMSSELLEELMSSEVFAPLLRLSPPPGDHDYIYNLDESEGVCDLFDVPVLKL

No constants are given. Whether binding was seen depends on the method and setting. Some entries that bind do so weakly or less than the wild type.

The target in assay [1] is T1, full length human DP1 fused at its N-terminus to the GAL4 DNA binding domain (encoded by vector pMAB32) (human) (UniProt P04386+Q14186). Description: yeast two-hybrid selection, GAL4 AD-cDNA prey against GAL4 DB-DP1 bait.
In assay [2] the target is T1, full length human DP1 fused at its N-terminus to the GAL4 DNA binding domain (encoded by vector pMAB32) (human). Description: yeast two-hybrid in strain MaV203, HIS3 reporter; GAL4 AD-cDNA prey against GAL4 DB-DP1 bait; clones identified by PCR.

With “E2F5 cDNA clone from a mouse brain cDNA library, fused to the GAL4 Activation Domain (vector pMAB58) (from UniProt Q61502 1-335)”, the binding entry in assay [1] and in assay [2] was “binds” in each case.

Turning to “E2F4 cDNA clone from a mouse brain cDNA library, fused to the GAL4 Activation Domain (vector pMAB58) (from UniProt Q8R0K9 2-410)”, the binding entry in assay [1] and in assay [2] was “binds” in each case.
